The test system of this data set is T1, rCcGal-9 (recombinant CcGal-9, galectin-9).
T1 construct: gene LOC109103103
Particulars: 20 µg rCcGal-9 preincubated with sugar 3 h; wells coated with S. aureus or A. hydrophila.
For the molecule `OC[C@H]1OC(O)[C@H](O)[C@@H](O)[C@H]1O` (stereo partly drawn) [D-galactose], the “competitive ELISA: sugar inhibits rCcGal-9 binding to coated bacteria” value was “D-galactose, D-xylose, sucrose, N-acetyl-D-glucosamine and L-rhamnose were capable of inhibiting”.

As to `OC[C@H]1OC(O)[C@H](O)[C@@H](O)[C@@H]1O` (stereo partly drawn) [D-glucose], the “competitive ELISA: sugar inhibits rCcGal-9 binding to coated bacteria” value is “D-glucose, D-galactose, D-xylose, sucrose, N-acetyl-D-glucosamine and L-rhamnose were capable of inhibiting”.

As to `OC[C@H]1OC(O)[C@@H](O)[C@@H](O)[C@@H]1O` (stereo partly drawn) [D-mannose], the “competitive ELISA: sugar inhibits rCcGal-9 binding to coated bacteria” value was “nine distinct saccharides, with a notably higher affinity for L-fucose and D-mannose”.

Take `OC1OC[C@@H](O)[C@H](O)[C@H]1O` (stereo partly drawn) [D-xylose]: the “competitive ELISA: sugar inhibits rCcGal-9 binding to coated bacteria” value is “D-xylose, sucrose, N-acetyl-D-glucosamine and L-rhamnose were capable of inhibiting”.

Consider `C[C@@H]1OC(O)[C@@H](O)[C@H](O)[C@@H]1O` (stereo partly drawn) [L-fucose], for which the “competitive ELISA: sugar inhibits rCcGal-9 binding to coated bacteria” value was “nine distinct saccharides, with a notably higher affinity for L-fucose and D-mannose”.

For the molecule `C[C@@H]1OC(O)[C@H](O)[C@H](O)[C@H]1O` (stereo partly drawn) [L-rhamnose], the “competitive ELISA: sugar inhibits rCcGal-9 binding to coated bacteria” value is “N-acetyl-D-glucosamine and L-rhamnose were identified as significant ligands of rCcGal-9”.

Regarding `CC(=O)N[C@H]1C(O)O[C@H](CO)[C@@H](O)[C@@H]1O` (stereo partly drawn) [N-acetyl-D-glucosamine], the “competitive ELISA: sugar inhibits rCcGal-9 binding to coated bacteria” value is “N-acetyl-D-glucosamine and L-rhamnose were identified as significant ligands of rCcGal-9”.

Take `CC(=O)N[C@@H]1C(O)O[C@H](CO)[C@@H](O)[C@@H]1O` (stereo partly drawn) [N-acetyl-D-mannosamine]: the “competitive ELISA: sugar inhibits rCcGal-9 binding to coated bacteria” value was “N-acetyl-D-mannosamine, L-fucose, D-mannose, D-glucose, D-galactose, D-xylose, sucrose, N-acetyl-D-glucosamine and L-rhamnose were capable of inhibiting”.

Consider `OC[C@H]1O[C@@](CO)(O[C@H]2O[C@H](CO)[C@@H](O)[C@H](O)[C@H]2O)[C@@H](O)[C@@H]1O` [sucrose], for which the “competitive ELISA: sugar inhibits rCcGal-9 binding to coated bacteria” value was “sucrose, N-acetyl-D-glucosamine and L-rhamnose were capable of inhibiting”.
